Reference: the supplement of paper PMC6078165
Values are relative to the signal before dosing, not to a vehicle control; the signal also falls without drug.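 Fibroblast labels name human fibroblasts: mostly primary ones from tissues such as uterus (C12385, HUF), lung (H6013), bone (Hs27A), adrenal (HADF) and skin (WS1), plus mammary HMF and breast cancer-associated Hs343T. The cancer cells are basal-like or mesenchymal-like triple-negative breast cancer lines. The paper calls a changed response a hit when it shifts by more than 3x the replicate standard deviation. The tissue of the other fibroblasts is not given here.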

Test system: MDAMB231
Test: relative JC-1 red fluorescence (viability) vs pre-drug, coculture with fibroblast (fraction); higher = more viable cancer cells
Experimental: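 JC-1 labelled TNBC cells cocultured 1:1 (1,500 cells each) with CellTrace Violet stained primary or stromal fibroblasts in 384-well plates in FluoroBrite medium, treated with one of 42 anticancer drugs at 0.1, 1, 10 or 100 uM. JC-1 red fluorescence (mitochondrial integrity in cancer cells only) was read by plate reader every 8 h for 72 h. Values are normalised to each well's pre-drug value. The stock of one drug was tenfold lower, so its dose labels may be too high.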

N.N.[Cl][Pt][Cl] [Cisplatin]
relative JC-1 red fluorescence
Settings | 8 h | 16 h | 24 h | 32 h | 40 h | 48 h | 56 h | 64 h | 72 h
10 µM, coculture fibroblast: C12385 | 0.7627 | 0.711 | 0.6464 | 0.614 | 0.553 | 0.528 | 0.49 | 0.483 | 0.467
10 µM, coculture fibroblast: H6013 | 0.882 | 0.837 | 0.8195 | 0.7992 | 0.768 | 0.746 | 0.725 | 0.707 | 0.667
10 µM, coculture fibroblast: H6019 | 0.77 | 0.699 | 0.7234 | 0.677 | 0.643 | 0.638 | 0.594 | 0.599 | 0.575
10 µM, coculture fibroblast: H6076 | 0.89 | 0.803 | 0.7468 | 0.721 | 0.684 | 0.64 | 0.614 | 0.599 | 0.586
10 µM, coculture fibroblast: H6231 | 0.921 | 0.823 | 0.741 | 0.678 | 0.619 | 0.577 | 0.533 | 0.51 | 0.486
10 µM, coculture fibroblast: HADF | 0.8871 | 0.8366 | 0.7906 | 0.746 | 0.711 | 0.663 | 0.648 | 0.636 | 0.588
10 µM, coculture fibroblast: HCFa | 0.886 | 0.829 | 0.7853 | 0.751 | 0.6921 | 0.6541 | 0.615 | 0.586 | 0.535
10 µM, coculture fibroblast: HCPF | 0.8564 | 0.753 | 0.687 | 0.65 | 0.586 | 0.548 | 0.514 | 0.488 | 0.469
10 µM, coculture fibroblast: HHSteC | 0.8905 | 0.8524 | 0.803 | 0.768 | 0.721 | 0.696 | 0.6486 | 0.635 | 0.5911
10 µM, coculture fibroblast: HMF | 0.892 | 0.8096 | 0.7456 | 0.701 | 0.6603 | 0.6191 | 0.5886 | 0.561 | 0.5443
10 µM, coculture fibroblast: HPFa | 0.9249 | 0.895 | 0.848 | 0.797 | 0.77 | 0.739 | 0.696 | 0.67 | 0.638
10 µM, coculture fibroblast: HUF | 0.818 | 0.717 | 0.727 | 0.6247 | 0.567 | 0.5531 | 0.503 | 0.5049 | 0.5031
10 µM, coculture fibroblast: Hs5 | 0.859 | 0.777 | 0.7118 | 0.6587 | 0.6073 | 0.553 | 0.5218 | 0.509 | 0.505
10 µM, coculture fibroblast: Hs27A | 0.897 | 0.849 | 0.813 | 0.796 | 0.762 | 0.697 | 0.712 | 0.702 | 0.661
10 µM, coculture fibroblast: Hs343T | 0.868 | 0.783 | 0.701 | 0.657 | 0.611 | 0.553 | 0.505 | 0.485 | 0.459
10 µM, coculture fibroblast: WS1 | 0.741 | 0.6677 | 0.644 | 0.583 | 0.532 | 0.513 | 0.475 | 0.478 | 0.465
100 µM, coculture fibroblast: C12385 | 0.759 | 0.70753 | 0.683 | 0.665 | 0.565 | 0.501 | 0.485 | 0.5 | 0.493
100 µM, coculture fibroblast: H6013 | 0.902 | 0.847 | 0.8083 | 0.79328 | 0.7429 | 0.721 | 0.676 | 0.645 | 0.594
100 µM, coculture fibroblast: H6019 | 0.764 | 0.739 | 0.719 | 0.672 | 0.616 | 0.59 | 0.549 | 0.537 | 0.504
100 µM, coculture fibroblast: H6076 | 0.8265 | 0.757 | 0.732 | 0.695 | 0.657 | 0.606 | 0.5819 | 0.5542 | 0.535
100 µM, coculture fibroblast: H6231 | 0.905 | 0.817 | 0.763 | 0.722 | 0.678 | 0.639 | 0.5992 | 0.584 | 0.564
100 µM, coculture fibroblast: HADF | 0.868 | 0.84621 | 0.818 | 0.7845 | 0.745 | 0.695 | 0.673 | 0.647 | 0.59
100 µM, coculture fibroblast: HCFa | 0.905 | 0.848 | 0.8018 | 0.76594 | 0.711 | 0.655 | 0.623 | 0.577 | 0.527
100 µM, coculture fibroblast: HCPF | 0.853 | 0.767 | 0.727 | 0.724 | 0.68 | 0.651 | 0.618 | 0.59 | 0.58
100 µM, coculture fibroblast: HHSteC | 0.90092 | 0.89 | 0.8581 | 0.822 | 0.795 | 0.773 | 0.717 | 0.702 | 0.659
100 µM, coculture fibroblast: HMF | 0.8254 | 0.736 | 0.6991 | 0.6755 | 0.636 | 0.603 | 0.579 | 0.57 | 0.545
100 µM, coculture fibroblast: HPFa | 0.9093 | 0.872 | 0.84 | 0.797 | 0.778 | 0.756 | 0.705 | 0.676 | 0.625
100 µM, coculture fibroblast: HUF | 0.841 | 0.768 | 0.792 | 0.708 | 0.646 | 0.629 | 0.583 | 0.584 | 0.566
100 µM, coculture fibroblast: Hs5 | 0.844 | 0.788 | 0.765 | 0.724 | 0.682 | 0.6229 | 0.595 | 0.563 | 0.543
100 µM, coculture fibroblast: Hs27A | 0.8835 | 0.853 | 0.829 | 0.806 | 0.749 | 0.681 | 0.682 | 0.658 | 0.607
100 µM, coculture fibroblast: Hs343T | 0.857 | 0.783 | 0.772 | 0.752 | 0.702 | 0.658 | 0.625 | 0.616 | 0.591
100 µM, coculture fibroblast: WS1 | 0.728 | 0.691 | 0.632 | 0.627 | 0.5892 | 0.541 | 0.49454 | 0.481 | 0.4564
